The source of these data is article PMC11257408.

Chains of the proteins cited; added tags and fusions are not shown. Lines headed by an entry give the natural chain unless they say otherwise; changes in a name come on top.
UniProt O95602: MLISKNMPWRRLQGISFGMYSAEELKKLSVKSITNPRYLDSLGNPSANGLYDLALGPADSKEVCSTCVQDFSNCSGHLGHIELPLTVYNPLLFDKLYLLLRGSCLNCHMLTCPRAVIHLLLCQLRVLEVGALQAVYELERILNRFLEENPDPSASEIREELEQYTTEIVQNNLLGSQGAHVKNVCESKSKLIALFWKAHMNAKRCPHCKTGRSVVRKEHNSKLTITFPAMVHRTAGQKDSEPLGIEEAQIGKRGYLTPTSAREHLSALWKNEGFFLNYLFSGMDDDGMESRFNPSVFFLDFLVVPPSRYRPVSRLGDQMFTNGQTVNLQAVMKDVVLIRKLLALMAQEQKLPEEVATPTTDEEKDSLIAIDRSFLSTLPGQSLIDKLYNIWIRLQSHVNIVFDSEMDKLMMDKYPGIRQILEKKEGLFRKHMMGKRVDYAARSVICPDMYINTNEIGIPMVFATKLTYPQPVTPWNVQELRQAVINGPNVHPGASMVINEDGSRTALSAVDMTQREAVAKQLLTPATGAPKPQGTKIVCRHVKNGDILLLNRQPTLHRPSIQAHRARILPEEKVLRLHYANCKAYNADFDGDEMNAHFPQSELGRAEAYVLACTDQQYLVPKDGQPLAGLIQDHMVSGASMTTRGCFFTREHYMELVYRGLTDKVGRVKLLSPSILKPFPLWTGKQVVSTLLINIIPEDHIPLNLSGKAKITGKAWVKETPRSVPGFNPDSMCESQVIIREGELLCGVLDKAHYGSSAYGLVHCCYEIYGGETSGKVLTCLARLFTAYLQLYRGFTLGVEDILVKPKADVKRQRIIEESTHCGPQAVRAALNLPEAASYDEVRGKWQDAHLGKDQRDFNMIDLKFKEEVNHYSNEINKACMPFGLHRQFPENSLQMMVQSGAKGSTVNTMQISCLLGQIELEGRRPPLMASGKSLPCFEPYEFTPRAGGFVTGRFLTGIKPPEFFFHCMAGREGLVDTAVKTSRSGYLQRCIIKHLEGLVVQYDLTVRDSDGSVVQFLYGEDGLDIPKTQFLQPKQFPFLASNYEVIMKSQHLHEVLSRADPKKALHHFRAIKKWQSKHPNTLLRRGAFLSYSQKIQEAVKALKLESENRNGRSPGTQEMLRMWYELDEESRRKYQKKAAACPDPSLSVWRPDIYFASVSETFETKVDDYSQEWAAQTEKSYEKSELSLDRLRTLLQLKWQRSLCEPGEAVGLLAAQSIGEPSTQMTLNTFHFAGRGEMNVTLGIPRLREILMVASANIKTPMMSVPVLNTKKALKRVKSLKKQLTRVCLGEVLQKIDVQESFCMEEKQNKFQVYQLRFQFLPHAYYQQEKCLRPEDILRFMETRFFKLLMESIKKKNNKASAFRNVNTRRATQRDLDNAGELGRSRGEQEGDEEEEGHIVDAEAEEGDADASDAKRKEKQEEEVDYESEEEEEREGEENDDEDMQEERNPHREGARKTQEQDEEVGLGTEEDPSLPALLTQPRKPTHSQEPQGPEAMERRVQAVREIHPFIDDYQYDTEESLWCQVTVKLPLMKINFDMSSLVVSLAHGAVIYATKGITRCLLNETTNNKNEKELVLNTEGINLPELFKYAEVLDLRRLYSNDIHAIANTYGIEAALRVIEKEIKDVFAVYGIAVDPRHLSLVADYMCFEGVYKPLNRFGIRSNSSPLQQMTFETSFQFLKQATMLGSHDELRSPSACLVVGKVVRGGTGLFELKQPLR
UniProt P31941: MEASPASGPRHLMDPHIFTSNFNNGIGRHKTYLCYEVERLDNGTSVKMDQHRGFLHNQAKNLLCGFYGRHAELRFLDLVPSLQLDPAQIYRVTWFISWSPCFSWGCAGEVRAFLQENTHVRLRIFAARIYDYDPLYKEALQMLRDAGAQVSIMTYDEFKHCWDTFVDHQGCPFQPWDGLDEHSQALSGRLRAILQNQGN
UniProt Q13263: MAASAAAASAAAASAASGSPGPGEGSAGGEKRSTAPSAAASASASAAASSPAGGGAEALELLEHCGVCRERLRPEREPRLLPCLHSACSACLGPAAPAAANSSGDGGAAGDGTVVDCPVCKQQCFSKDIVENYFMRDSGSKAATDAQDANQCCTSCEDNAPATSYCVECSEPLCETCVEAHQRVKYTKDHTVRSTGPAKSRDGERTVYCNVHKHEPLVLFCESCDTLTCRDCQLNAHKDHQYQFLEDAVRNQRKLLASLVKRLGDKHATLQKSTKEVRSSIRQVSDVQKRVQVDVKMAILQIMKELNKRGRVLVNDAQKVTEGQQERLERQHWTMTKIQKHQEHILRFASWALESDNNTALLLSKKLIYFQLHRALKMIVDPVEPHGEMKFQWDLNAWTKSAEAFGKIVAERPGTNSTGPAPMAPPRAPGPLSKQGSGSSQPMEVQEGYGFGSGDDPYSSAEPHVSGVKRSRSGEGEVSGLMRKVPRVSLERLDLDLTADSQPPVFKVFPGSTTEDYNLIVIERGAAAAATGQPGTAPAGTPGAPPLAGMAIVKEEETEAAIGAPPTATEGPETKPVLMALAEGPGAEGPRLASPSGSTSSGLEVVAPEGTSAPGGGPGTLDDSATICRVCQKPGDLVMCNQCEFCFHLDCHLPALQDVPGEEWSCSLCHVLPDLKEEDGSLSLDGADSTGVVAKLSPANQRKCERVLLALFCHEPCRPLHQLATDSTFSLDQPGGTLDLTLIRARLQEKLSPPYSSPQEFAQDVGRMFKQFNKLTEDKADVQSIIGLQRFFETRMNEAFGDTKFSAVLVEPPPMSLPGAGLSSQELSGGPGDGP

In assay [1] the target is RPA194 (human (endogenous in HeLa)) (UniProt O95602). In words: co-IP; α-RPA194 antibody on protein A or protein A/G agarose beads; total cell extract (sonication) of HeLa cells transfected with APOBEC3A-3XFLAG for 24 h; 2 h at 4°C; western blot; unconjugated beads as negative control.
Assay [2] has as its target C-terminal 3X-FLAG tagged APOBEC3A wild-type (human) (UniProt P31941). Nature of the assay: co-IP; reciprocal: preconjugated α-FLAG M2 agarose; total cell extract (sonication) of HeLa cells transfected with APOBEC3A-3XFLAG for 24 h; 2 h at 4°C; western blot; unconjugated control agarose as negative control. A general note: A western blot detects proteins with antibodies after separation by electrophoresis.

These are yes or no findings as the source states them, for the method shown. Binding seen in cells or lysates may run through a third protein. Some results given as binding are weak or reduced against the parent protein; the word gives no strength.

As for “C-terminal 3X-FLAG tagged APOBEC3A wild-type (from UniProt P31941-1 1-199) (enzyme)”, the binding entry in assay [1] is recorded as “binds”. As to “KAP1 (TRIM28) (from UniProt Q13263 1-835)”, the binding result in assay [2] and in assay [1] was “binds” in each case. For the molecule RPA194 (from UniProt O95602 1-1720), the binding entry in assay [2] was “binds”.

B1: fibrillarin (protein, UniProt P22087 1-321)
chain: MKPGFSPRGGGFGGRGGFGDRGGRGGRGGFGGGRGRGGGFRGRGRGGGGGGGGGGGGGRGGGGFHSGGNRGRGRGGKRGNQSGKNVMVEPHRHEGVFICRGKEDALVTKNLVPGESVYGEKRVSISEGDDKIEYRAWNPFRSKLAAAILGGVDQIHIKPGAKVLYLGAASGTTVSHVSDIVGPDGLVYAVEFSHRSGRDLINLAKKRTNIIPVIEDARHPHKYRMLIAMVDVIFADVAQPDQTRIVALNAHTFLRNGGHFVISIKANCIDSTASAEAVFASEVKKMQQENMKPQEQLTLEPYERDHAVVVGVYRPPPKVKN
As for B1, the binding result in assay [2] and in assay [1] was “binds” each time.
